In PubChem BioAssay AID2685 (National Center for Advancing Translational Sciences (NCATS), 2010) one finds cell number change and AC50 data, which are given here for 38 molecules.

The list shows a part of the results. Shown are side measurements of this screen, not its main read-out; they come without a call. Compounds called inactive in the main read-out are mostly missing here. Words in brackets tell the shape of the fitted curve; partial curves, single points and poor fits give uncertain potencies.

As a reminder, the AC50 is the midpoint of the concentration-response curve, whichever way the signal moves. Low readings indicate greater potency, high ones weaker potency.

The assay can be described thus: qHTS Assay for Lipid Storage Modulators in Drosophila S3 Cells.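 On cell number change: cells counted by Cell Tracker Red CMTPX staining in the red channel.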 The conditions noted are these: BODIPY lipid droplet fluorescence, 18-24 h; for cell number change: measured here: cell count max response, cells fed with added oleic acid. The procedure, abridged:
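Laser-scanning cytometry quantifies lipid droplet accumulation (500–530 nm total intensity; droplet/cell object ratio) in oleic acid-fed (400 uM added) Drosophila S3 cells treated with a concentration series. 20 uM Triacsin C defined 100% inhibition.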
(qHTS replaces the single test concentration by a dilution series.)

Setting [1] is: measured here: cell number channel AC50, cells fed with added oleic acid.
Setting [2] is: measured here: lipid fluorescence (Fed channel) AC50, cells fed with added oleic acid.

Take `Cc1ccc(S(=O)(=O)NC(C(=O)OCC(=O)NC(=O)c2cccn2C)C(C)C)cc1` (stereo unspecified): the cell number change is -34.1%. Further, the AC50 under setting [1] was 0.206 µM [falling, full curve, poor fit]. The concentration at half-maximal activity (AC50) under setting [2] is 29.1 µM [falling, partial curve].

For the molecule `N#CCOc1nc(N2CCCCC2)nc(N2CCCCC2)n1`, the AC50 under setting [2] was 0.82 µM [rising, full curve, poor fit].

`Cc1cc(C(=O)CN2C(=O)C(=O)N(C)C2=O)c(C)n1-c1cccc(S(=O)(=O)N2CCOCC2)c1`: the cell number change is -17.2%.

On to `CC1CCCCN1C(=O)COC(=O)c1ccc2c(c1)C(=O)N(Cc1ccco1)C2=O` (stereo unspecified), for which the cell number change came to 30.8%. Moreover, the AC50 under setting [1] was 29.1 µM [rising, single point]. The concentration at half-maximal activity (AC50) under setting [2] is 0.82 µM [falling, full curve, poor fit].

As for `Cc1cccc(N2C(=O)SC(N(CC(=O)O)c3cccc(C)c3)C2=O)c1` (stereo unspecified), the cell number change is -38.5%. In addition, the AC50 under setting [1] is 6.51 µM [falling, single point].

For the molecule `CCN(C(=O)c1cc(S(=O)(=O)N2CCCC2)ccc1C)C1CCS(=O)(=O)C1` (stereo unspecified), the cell number change is -10.5%. Under setting [2], the AC50 is 10.3 µM [falling, partial curve].

With `O=C(CCc1ccccc1)Nc1ccccc1C(F)(F)F`, the cell number change is 30.8%. The AC50 under setting [2] was 6.51 µM [rising, partial curve].

Turning to `Cc1ccc(C2=NN(C(=O)CCC(=O)O)C(c3cn(-c4ccccc4)nc3-c3ccc(C)cc3)C2)cc1` (stereo unspecified), the cell number change was -38.6%. In addition, the half-maximal activity concentration (AC50) under setting [1] is 29.1 µM [falling, single point]. In addition, the concentration at half-maximal activity (AC50) under setting [2] was 23.1 µM [falling, single point].

As for `CCc1nc(SCC(=O)NNC(=O)c2ccc(C)cc2)c2ccccc2n1`, the cell number change is -4.76%. The AC50 under setting [2] was 29.1 µM [rising, single point].

In the case of `COC(=O)C1CC(c2ccc(Cl)cc2)=NO1` (stereo unspecified), the cell number change is -65.9%.

Consider `O=C(OCC(O)C(O)COC(=O)c1ccccc1)c1ccccc1` (stereo unspecified), for which the cell number change is -1.76%. Further, under setting [2], the AC50 was 5.17 µM [falling, single point].

`O=C1CN(C(=O)NCC(=O)N[C@H](C(=O)O)c2ccccc2)c2ccccc2N1`: the cell number change is -6.27%. For the same molecule, the AC50 under setting [1] was 2.91 µM [rising, partial curve, poor fit]. In addition, the AC50 under setting [2] is 0.731 µM [rising, single point].

As to `CCOc1cc(/C=N/Nc2ncc(C)c(=O)[nH]2)ccc1O`, the cell number change was -1.8%. For the same molecule, under setting [2], the AC50 was 6.51 µM [rising, single point].

On to `CCOC(=O)c1ccc(NC(=S)Nc2ccccc2)cc1`, for which the AC50 under setting [1] is 0.82 µM [rising, full curve] and the AC50 under setting [2] is 1.3 µM [rising, full curve].

As for `Cc1c(NC(=O)COc2cccc(Br)c2)c(=O)n(-c2ccccc2)n1C`, the cell number change amounted to 13.3%.

On to `Cc1ccccc1C(=O)NCCNC(=O)c1ccccn1`, for which the cell number change is 3.81%. The half-maximal activity concentration (AC50) under setting [2] is 6.51 µM [falling, single point].

For the molecule `OCc1nc2ccccc2n1CCc1ccccc1`, the cell number change was -15.2%.

`CC(=O)c1c(C)[nH]c(C(=O)OCc2ccc(Br)cc2)c1C`: the cell number change came out at 43.4%. Besides, under setting [1], the AC50 was 1.46 µM [rising, full curve, poor fit].

Consider `COc1ccccc1N1C(=O)C2C(C(=O)c3ccccc3)=NN(c3ccc(Br)cc3)C2C1=O` (stereo unspecified), for which the cell number change came out at 53.1%.

Consider `CNC(=S)N1CCC(c2nc3ccccc3s2)CC1`, for which the cell number change is -43.6%. The AC50 under setting [1] is 29.1 µM [falling, single point]. In addition, the AC50 under setting [2] is 29.1 µM [falling, single point].

As for `Cc1ccc(CNC(=O)CCCOc2cc(=O)n(C)c3ccccc23)o1`, the cell number change amounted to 96.9%. Also, under setting [1], the AC50 is 20.6 µM [rising, single point].

For `COCCN1C(=O)C(=O)/C(=C(/O)c2cccc(S(=O)(=O)N(C)C)c2)C12C(=O)N(C)c1ccccc12` (stereo unspecified), the cell number change was 6.61%.

On to `O=C1N=C(N2CCOCC2)S/C1=C\c1ccc(-c2ccccc2Cl)o1`, for which the cell number change was -31.8%. Further, the AC50 under setting [1] is 10.3 µM [falling, partial curve]. For the same molecule, under setting [2], the AC50 was 1.16 µM [rising, full curve].

On to `Cc1ccccc1N(C)C(=O)C1CCCN(c2ncnc3c2nc2n3CCCCC2)C1` (stereo unspecified), for which the cell number change turned out to be 18.5%.

For `O=C(c1ccc(Cl)cc1)N1CCN(S(=O)(=O)/C=C/c2ccccc2)CC1`, the cell number change was -7.39%. The AC50 under setting [1] was 0.00461 µM [falling, full curve, poor fit]. Under setting [2], the half-maximal activity concentration (AC50) was 1.03 µM [rising, partial curve].

Turning to `O=[N+]([O-])c1ccc(S(=O)(=O)c2ccccc2)nc1`, the cell number change is -35.9%. Besides, the AC50 under setting [1] is 6.51 µM [falling, single point]. Moreover, the AC50 under setting [2] was 3.66 µM [falling, full curve].

In the case of `CC1CCCC/C1=N\NS(=O)(=O)c1ccc(Br)cc1` (stereo unspecified), the cell number change is -15.4%. Besides, the AC50 under setting [2] was 29.1 µM [falling, single point].

Regarding `Cc1ccc(Cn2c(=N)c(C(=O)NCc3ccco3)cc3c(=O)n4ccccc4nc32)cc1`, the cell number change is -22.1%. Also, the AC50 under setting [2] was 29.1 µM [falling, single point].

For the molecule `O=C(Nc1ccccc1C(=O)O)c1ncn[nH]1`, the cell number change worked out at 9.3%. Also, the AC50 under setting [2] was 5.8 µM [falling, single point].

For `Cc1cccc(NC(=O)CN2CCN(CC(=O)Nc3ccc(-c4ccccc4)cc3)CC2)c1C`, the cell number change is 3.85%. The AC50 under setting [2] is 2.06 µM [falling, full curve, poor fit].

In the case of `Cc1nc(-c2cccs2)sc1C(=O)NN`, the cell number change was determined as 19.2%. Moreover, the AC50 under setting [2] is 29.1 µM [rising, single point].

For the molecule `CCOC(=O)Cc1nnc(NC(=O)Nc2ccccc2)s1`, the cell number change was 1.47%.

Turning to `CC(NC(=O)C(=O)N1CCCCC1)C(c1cccs1)N1CCN(c2ccccc2)CC1` (stereo unspecified), the cell number change came to 7.76%.

As for `COC(=O)c1cc(OC)c(OC)cc1NC(=O)Nc1ccccc1F`, the cell number change was -0.468%. For the same molecule, the AC50 under setting [1] was 1.03 µM [falling, partial curve]. Further, the AC50 under setting [2] was 6.51 µM [falling, partial curve].

In the case of `O=C(COC(=O)c1cccc(C(=O)OCC(=O)NC2CC2)n1)NC1CC1`, the cell number change turned out to be 87%. Moreover, the AC50 under setting [1] is 18.4 µM [rising, single point].

With `O=C(NCc1cccs1)c1cc(-c2ccccn2)nc2ccc(Br)cc12`, the cell number change is -3.38%. For the same molecule, the AC50 under setting [1] was 0.146 µM [falling, full curve, poor fit]. The concentration at half-maximal activity (AC50) under setting [2] was 0.146 µM [falling, full curve, poor fit].

In the case of `Oc1[nH]c2ccccc2c1N=Nc1cccc(Cl)c1`, the cell number change is -29.8%. In addition, the AC50 under setting [2] is 8.2 µM [falling, partial curve].

`Cc1ccc(C(=O)OCC(=O)Nc2ncc(Cl)cc2Cl)cc1NC(=O)c1ccco1`: the cell number change is 174%. Also, the AC50 under setting [1] was 29.1 µM [rising, single point].
